Patent publication US6630496B1, “Inhibitors of phospholipase enzymes” (Genetics Institute LLC, priority 1996, dated 2003)
Values joined by “and” are separate entries in the source; they are usually repeats but may differ in a detail not shown here. Equal entries are not always repeated. Structures were worked out from names or drawings and are uncertain.

Sequences of proteins named here, by UniProt entry; tags and fusion partners are left off.
UniProt P47712, whole entry: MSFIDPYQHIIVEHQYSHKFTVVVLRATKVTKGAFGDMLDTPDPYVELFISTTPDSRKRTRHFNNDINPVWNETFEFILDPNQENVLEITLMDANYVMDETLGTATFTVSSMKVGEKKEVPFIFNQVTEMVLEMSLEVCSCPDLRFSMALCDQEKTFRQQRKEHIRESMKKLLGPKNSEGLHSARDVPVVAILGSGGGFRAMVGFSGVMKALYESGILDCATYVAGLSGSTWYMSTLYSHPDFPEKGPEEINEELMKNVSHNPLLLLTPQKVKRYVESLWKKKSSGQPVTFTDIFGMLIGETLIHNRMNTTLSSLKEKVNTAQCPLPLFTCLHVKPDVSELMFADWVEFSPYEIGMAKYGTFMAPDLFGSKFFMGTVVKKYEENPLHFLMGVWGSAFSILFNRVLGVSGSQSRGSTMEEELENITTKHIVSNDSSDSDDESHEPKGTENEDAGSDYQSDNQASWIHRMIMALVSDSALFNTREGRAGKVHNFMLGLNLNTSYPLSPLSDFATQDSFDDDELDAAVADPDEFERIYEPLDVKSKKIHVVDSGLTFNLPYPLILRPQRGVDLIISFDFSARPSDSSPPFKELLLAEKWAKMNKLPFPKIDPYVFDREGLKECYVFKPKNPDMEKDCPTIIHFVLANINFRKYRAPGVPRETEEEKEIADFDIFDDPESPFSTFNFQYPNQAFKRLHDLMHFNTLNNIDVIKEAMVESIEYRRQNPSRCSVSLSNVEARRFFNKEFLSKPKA

Target: cPLA2 (Homo sapiens, UniProt P47712)
Assay: Activity assay of Example 136 (Table VIII; sub-assay not stated)
Settings: read-out: CONCENTRATION (micromolar) @ PERCENT INHIBITION 50; concentration paired with 50 percent inhibition
Method: Activity data for the compounds of Examples 88-135 are reported in Table VIII (assay described in Example 136).
1-palmitoyl-2-V^14C] arachidonyl phosphotidylcholine (58 mCi/mmol) (final concentration 6 μM) and 1,2-dioleyolglycerol (final concentration 3 μM) were mixed and dried under a stream of nitrogen. To the lipids was added 50 mM Hepes pH 7.5 (2×final concentration of lipids) and the suspension was sonicated for 3 min. at 4° C. To the suspension was added 50 mM Hepes pH 7.5, 300 mM NaCl, 2 mM DTT, 2 mM CaCl2 and 2 mg/ml bovine serum albumin (BSA) (Sigma A7511) (1.2×final concentration of lipids). A typical assay consisted of the lipid mixture (85 μl) to which was added consecutively, the inhibitor (5 μl in DMSO) and cPLA2, 10 ng for an automated system or 1 ng for a manual assay, in 10 μl of the BSA buffer. This assay was conducted by either the manual assay or automated assay protocol described below.
1-[^14C]-palmitoyl-2-hydroxyphosphotidyl-choline (57 mCi/mmol) (final concentration 4.4 μM) was dried under a stream of nitrogen. […]
7-hydroxycoumarinyl 6-heptenoate was used as a monomeric substrate for cPLA2 as reported previously (Huang, Z. et al., 1994, Analytical Biochemistry 222, 110-115). […] Hydrolysis of the 7-hydroxycoumarinyl 6-heptenoate ester was monitored in a fluorometer by exciting at 360 nm and monitoring emission at 460 nm. […]

For `O=C(O)/C=C/c1cc2cc(OCc3ccccc3)ccc2n1Cc1ccc2ccccc2c1`, the IC50 was 12.5 µM and 15 µM.
